Data reported in patent EP3222712A1, “ALCOHOL DEHYDROGENASE FROM PICHIA PASTORIS AND USE THEREOF” (priority 2016, dated 2017).

System: alcohol dehydrogenase from Pichia pastoris (PPADH)
Assay: biotransformation by purified PPADH with GDH co-factor regeneration, gas chromatography
Type: biochemical
Conditions: 2 hours reaction time; for ee: acetophenone derivatives, alcohol formed

Row | Compound | ee [%] | enantiomer of the alcohol formed (acetophenone)
1 | O=C(c1ccc(Cl)cc1)C(F)(F)F [4'-Chloro-2,2,2-trifluoro acetophenone] | 63.8 | –
2 | O=C(c1ccccc1)C(F)(F)F [2,2,2-Trifluoroacetophenone] | 29.5 | –
3 | CC(=O)c1ccccc1 [acetophenone] | – | (S)
